From patent publication US20070054353A1, “Nuclear receptor transcriptional corepressor and uses thereof” (priority 2002, published 2007) come the findings set out here.

Amino acid sequences for entries named in this document (tags omitted).
UniProt P03372: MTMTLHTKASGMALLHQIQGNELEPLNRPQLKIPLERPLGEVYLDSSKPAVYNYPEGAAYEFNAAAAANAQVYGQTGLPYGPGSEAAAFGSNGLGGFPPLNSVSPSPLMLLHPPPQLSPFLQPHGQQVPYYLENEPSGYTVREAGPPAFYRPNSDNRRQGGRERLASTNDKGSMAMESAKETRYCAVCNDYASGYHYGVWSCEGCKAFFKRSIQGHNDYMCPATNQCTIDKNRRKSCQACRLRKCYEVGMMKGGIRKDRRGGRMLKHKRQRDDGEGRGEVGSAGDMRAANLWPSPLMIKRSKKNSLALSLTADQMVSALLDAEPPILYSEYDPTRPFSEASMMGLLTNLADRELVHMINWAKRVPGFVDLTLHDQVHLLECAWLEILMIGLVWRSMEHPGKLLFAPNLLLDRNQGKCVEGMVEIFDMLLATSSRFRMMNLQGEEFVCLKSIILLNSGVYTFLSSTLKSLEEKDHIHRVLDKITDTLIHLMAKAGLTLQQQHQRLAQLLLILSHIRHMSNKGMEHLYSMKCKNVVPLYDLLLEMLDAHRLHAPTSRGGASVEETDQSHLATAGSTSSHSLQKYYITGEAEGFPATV

These are yes or no findings as the source states them, for the method shown. Binding seen in cells or lysates may run through a third protein. Some results given as binding are weak or reduced against the parent protein; the word gives no strength. Where a sequence is shown, tags or fusion partners need not be part of it.

The target in this experiment is T1, GST-LCoR (human) (UniProt Q96JN0).
T1 sequence: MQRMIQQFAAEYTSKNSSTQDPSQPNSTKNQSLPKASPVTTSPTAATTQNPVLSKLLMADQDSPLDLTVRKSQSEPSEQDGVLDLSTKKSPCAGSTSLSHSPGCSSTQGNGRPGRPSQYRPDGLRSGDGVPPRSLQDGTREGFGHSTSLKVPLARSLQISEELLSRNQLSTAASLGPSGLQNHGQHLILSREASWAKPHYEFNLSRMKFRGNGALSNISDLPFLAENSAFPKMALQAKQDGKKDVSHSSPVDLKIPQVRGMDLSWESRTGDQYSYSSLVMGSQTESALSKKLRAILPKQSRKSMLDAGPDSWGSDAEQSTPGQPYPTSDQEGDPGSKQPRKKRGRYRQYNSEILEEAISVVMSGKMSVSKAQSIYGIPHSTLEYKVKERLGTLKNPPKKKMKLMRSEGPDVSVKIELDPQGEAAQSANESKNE
Nature of the experiment: GST pull-down, in vitro translated ERα (HEG0) on GST-LCoR.

Turning to “ERα (estrogen receptor α) (from UniProt P03372 1-595)”, the binding entry is on record as “binds”.
